In PMC6351623 one finds binding data, which are given here for three substances.

Sequences of proteins named here, by UniProt entry; tags and fusion partners are left off. A change or cut given only in a name is not applied to a line headed by its entry.
UniProt Q6C2H2: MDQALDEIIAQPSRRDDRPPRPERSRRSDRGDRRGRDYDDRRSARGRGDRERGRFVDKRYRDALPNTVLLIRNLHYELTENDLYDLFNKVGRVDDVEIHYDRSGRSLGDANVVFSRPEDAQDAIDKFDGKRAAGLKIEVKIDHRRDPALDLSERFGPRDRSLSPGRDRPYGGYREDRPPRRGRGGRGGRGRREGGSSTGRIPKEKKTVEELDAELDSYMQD
UniProt Q6C7N5: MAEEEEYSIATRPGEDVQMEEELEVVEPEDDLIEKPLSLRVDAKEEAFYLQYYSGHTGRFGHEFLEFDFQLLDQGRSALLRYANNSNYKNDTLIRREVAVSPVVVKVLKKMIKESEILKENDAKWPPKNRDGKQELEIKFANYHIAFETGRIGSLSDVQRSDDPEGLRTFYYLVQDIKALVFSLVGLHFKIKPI
UniProt Q6C7A0: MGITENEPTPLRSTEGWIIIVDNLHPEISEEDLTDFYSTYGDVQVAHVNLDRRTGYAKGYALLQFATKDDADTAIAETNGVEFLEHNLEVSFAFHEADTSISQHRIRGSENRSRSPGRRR

These are yes or no findings as the source states them, for the method shown. Binding can be weak; no strength is given. For some of these results: In cells and extracts the contact can be indirect.

The target in test [1] is Aly/REF-HA (Yarrowia lipolytica Aly/REF with an HA tag) (Yarrowia lipolytica) (UniProt Q6C2H2). In words: co-IP; solubilized extracts (2% Triton X-100, 0.5% SDS, diluted five times in PBS) from membrane-enriched fractions of Y. lipolytica strains over-expressing the tagged proteins; anti-FLAG, anti-V5 or anti-HA immunoprecipitation, 4 hours at 4 °C; Western blot. A general note: In western blotting, separated proteins are transferred to a membrane and probed.

For test [2], the target named is Mago-FLAG (Yarrowia lipolytica Mago with a C-terminal FLAG tag) (Yarrowia lipolytica) (UniProt Q6C7N5). Described as above.
For test [3], the target named is Y14-V5 (Yarrowia lipolytica Y14 with a V5 epitope just downstream from the ATG codon) (Yarrowia lipolytica) (UniProt Q6C7A0). Described as above.
The target of test [4] is Gal4BD-Y14 (Yarrowia lipolytica Y14 fused to the Gal4p DNA-binding domain) (Yarrowia lipolytica) (UniProt Q6C7A0). The experiment in a line: two-hybrid; S. cerevisiae PJ69-4A; Gal4BD-Y14 (pAS2ΔΔ) with Gal4AD-Mago (pACT2); growth on minimal medium lacking leucine, tryptophan and histidine + 5 mM 3-aminotriazole.

Consider “Y14-V5 (Yarrowia lipolytica Y14 with a V5 epitope just downstream from the ATG codon) (from UniProt Q6C7A0)”, for which the binding entry in test [1] and in test [2] was “binds” in each case.

On to “Mago-FLAG (Yarrowia lipolytica Mago with a C-terminal FLAG tag) (from UniProt Q6C7N5)”, for which the binding entry in test [3] is listed as “binds”.

With “Gal4AD-Mago (Yarrowia lipolytica Mago fused to the Gal4p-activating domain) (from UniProt Q6C7N5)”, the binding result in test [4] is listed as “binds”.
